Primary screen of a compound library

From ChEMBL document CHEMBL3988442, “University of Dundee, Small-Polar-MMV Screening Library” (2021).

Mtb cholesterol medium: 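Phenotypic screen: M. tuberculosis growth, cholesterol and DPPC medium, 4 days; the read-out is not stated. Tested at 50 µM. The record gives no direction; compounds that gave an IC50 in retests scored well above the rest, so higher reads as more growth inhibition. Of about 69,000 compounds tested this way, about 370 (0.54%) reached 50% or more in at least one test.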
Mtb glucose medium: 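Growth of Mycobacterium tuberculosis over 3 days (7H9 medium with glucose and tyloxapol); the read-out is not stated. Compounds at 50 µM. Direction is inferred from retests: higher values go with more growth inhibition. Size under these conditions: about 69,000 compounds, about 760 of them at 50% or above in at least one test.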

Each number is a percent effect as filed.
The controls that fix the scale are not given in the record; negative values are as filed.
This is an unselected part of the compounds tested.
Two or more numbers in one place are separate tests of the same structure; such repeats can differ widely.

With CC(C)C(NC(=O)C1CC1)c1cc(O)nc(-c2cccnc2)n1 (centres undefined) the screen gave Mtb cholesterol medium: 1.133% & -13.97%; Mtb glucose medium: 3.178%.
With O=C(NCc1cccs1)C1CCN(c2cc(-n3ccnc3)ncn2)CC1 the screen gave Mtb cholesterol medium: 7.139%; Mtb glucose medium: 23.98% & -1.945%.
With COc1cc(NCc2cccnc2)c(-c2nn[nH]n2)cc1OC the screen gave Mtb cholesterol medium: 16.9%; Mtb glucose medium: -25.86%.
With CCCOc1ccc(CNC2CCCc3c2cnn3CC)cc1OC (centres undefined) the screen gave Mtb cholesterol medium: 9.355%; Mtb glucose medium: 28.01%.
With COc1ccc(CN2CCN(C(C)=O)CC2)cc1SC(F)(F)F the screen gave Mtb cholesterol medium: 12.79% & 6.852%; Mtb glucose medium: 12.2% & 24.92%.
With O=C(Cc1ccc(F)cc1)NCCNS(=O)(=O)c1ccc(F)c(F)c1 the screen gave Mtb cholesterol medium: -12.21%; Mtb glucose medium: 5.268% & 15.13%.
With CN(C)CCN(Cc1ccccn1)Cc1ccnn1C1CCCCO1.O=C(O)CC(O)(CC(=O)O)C(=O)O (centres undefined) the screen gave Mtb cholesterol medium: 7.943%; Mtb glucose medium: -2.375%.
With CC(NC(=O)NCCCc1n[nH]c(N)c1C#N)c1cccc(Cl)c1 (centres undefined) the screen gave Mtb cholesterol medium: 4.219%; Mtb glucose medium: -13.33%.
With COc1cccc(CC(C)NC(=O)c2ccc(CNC(C)=O)cc2)c1 (centres undefined) the screen gave Mtb cholesterol medium: -13.52%; Mtb glucose medium: -8.065%.
With [H][C@]12CC[C@]([H])(CN(C(=O)c3ccc4[nH]cnc4c3)C1)N(CC=C(C)C)C2 the screen gave Mtb cholesterol medium: -28.97%; Mtb glucose medium: -38.88% & 0.6621%.
With Cc1ncsc1C(=O)NCCc1cccs1 the screen gave Mtb cholesterol medium: 3.805%; Mtb glucose medium: -5.868%.
With CCS(=O)(=O)N1Cc2nccn2CC(Cn2cccn2)C1 (centres undefined) the screen gave Mtb cholesterol medium: -5.78%; Mtb glucose medium: 2.858%.
With Cc1ccsc1C(=O)N1CCc2ncc(CN(C)C)n2CC1.O=C(O)C(F)(F)F the screen gave Mtb cholesterol medium: -18.49%; Mtb glucose medium: -21.18%.
With CSC(C)CCN(Cc1ccccn1)Cc1sccc1C (centres undefined) the screen gave Mtb cholesterol medium: 6.608%; Mtb glucose medium: 16.89%.
With COC(=O)[C@H]1CN(C(=O)NC(C)C)CCN1C(=O)c1cccs1 the screen gave Mtb cholesterol medium: -1.04%; Mtb glucose medium: 0.6449% & -4.978%.
With O=C(O)C(F)(F)F.[H][C@@]12CCN(C(=O)N3CCCC3)C[C@]1(COc1ncccc1F)CCO2 the screen gave Mtb cholesterol medium: -4.571% & 2.072%; Mtb glucose medium: -18.38% & 4.09%.
With Cc1nnc(CN(C)S(=O)(=O)c2ccc(Br)cc2Cl)n1C the screen gave Mtb cholesterol medium: -6.681%; Mtb glucose medium: 9.222%.
With Cc1nccn1CCC1CCCCN1C(=O)c1ccc2nonc2c1 (centres undefined) the screen gave Mtb cholesterol medium: 1.508% & -15.17%; Mtb glucose medium: -23.48%.
With CC(c1nc(-c2cccnc2)no1)N(C)CCCOc1ccccc1 (centres undefined) the screen gave Mtb cholesterol medium: -7.502%; Mtb glucose medium: -12%.
With COc1ccc(CCNC(=O)N2CCCC(c3nncn3C)C2)cc1 (centres undefined) the screen gave Mtb cholesterol medium: -9.954%; Mtb glucose medium: -30.92%.
With Cc1ccc(OCC(=O)NC2(C#N)CCSCC2)cc1C the screen gave Mtb cholesterol medium: 20.42%; Mtb glucose medium: 33.2% & 45.77%.
With CC(C)Cc1cc(NC(=O)c2ccc(=O)[nH]n2)n(C)n1 the screen gave Mtb cholesterol medium: -0.2453%; Mtb glucose medium: 6.383%.
With CCc1ccc(CNC(=O)CCNc2ncccn2)s1 the screen gave Mtb cholesterol medium: -15.96%; Mtb glucose medium: 3.65%.
With O=S(=O)(NCCSc1nccn1C1CC1)c1ccccc1 the screen gave Mtb cholesterol medium: -2.141%; Mtb glucose medium: 6.918%.

For reference, 2 entries once more:

* COc1cccc(CC(C)NC(=O)c2ccc(CNC(C)=O)cc2)c1 (centres undefined) | Mtb cholesterol medium: -13.52%; Mtb glucose medium: -8.065%
* COC(=O)[C@H]1CN(C(=O)NC(C)C)CCN1C(=O)c1cccs1 | Mtb cholesterol medium: -1.04%; Mtb glucose medium: 0.6449% & -4.978%